# Screening data

The results are deposited in PubChem (AID912; NCATS, 2007).

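A cell-based FRET test of anthrax lethal toxin entry, tracked through the 460 nm emission signal; the cell line is not named here. Each compound was tested as a concentration series from about 0.0005 to 40 µM. The number is the fitted AC50 of the 460 nm signal alone; lower values mean a more potent effect. A falling signal goes with compounds filed as inhibitors or cytotoxic, a rising one with activators or fluorescent compounds (inferred from the filed classes).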

Values are in nM. Common to all entries: measured here: 460 nm channel. This is a side read-out of the assay, for part of the compounds, not drawn at random. Potencies fitted to partial, single-point or poorly fitting curves are rough. The first word of each remark tells which way the curve ran; it can be opposite to the aim of the assay.

* COc1ccccc1CN1C(=S)SC(C)(C)C1NO (stereo not shown) : AC50 7943 nM (falling, partial curve)
* CCN1C(=O)[C@H]2[C@@H]3[C@H](O)C=CC(=O)[C@H]3CC[C@H]2C1=O : AC50 5012 nM (rising, single point)
* COC(=O)[C@@]1(Cc2ccccc2)[C@H]2c3cc(C(=O)N4CCCC4)n(Cc4nc5ccccc5[nH]4)c3C[C@H]2CN1C(=O)c1ccccc1 : AC50 7943 nM (rising, partial curve)
* COc1cccc(Nc2ncc3nc(-c4cn(C)c5ccccc45)c(=O)n(C[C@H]4CCCO4)c3n2)c1 : AC50 1259 nM (rising, full curve)
* O=C(c1cccc(COc2ccc(Cl)cc2Cl)c1)N1CCN(c2ccccn2)CC1 : AC50 12589 nM (falling, partial curve)
* CN(C)S(=O)(=O)c1ccc(-c2ccccc2)cc1 : AC50 12589 nM (falling, partial curve)
* NC(=O)Cn1cnc(-c2ccccc2)c1 : AC50 12589 nM (rising, partial curve)
* O=C(c1cc2ccccc2o1)N1CCN(c2ccccc2Cl)CC1 : AC50 10000 nM (falling, partial curve)
* Cc1nc2cc(-c3cccc(F)c3)nn2c(C)c1CCC(=O)NC(C)CCc1ccco1 (stereo not shown) : AC50 15848 nM (falling, partial curve)
* COc1ccc(N2CCN(C(=O)c3cn(C4CCCC4)c(=O)c4c3c3ccccc3n4C)CC2)cc1 : AC50 3162 nM (rising, full curve)
* COc1ccccc1N(CC(=O)NC1CCCC1)C(=O)CCC(=O)Nc1cc(C)on1 : AC50 5012 nM (rising, single point)
* CCOCCCn1c(=NC(C)=O)c(C(=O)OCC)cc2c(=O)n3ccccc3nc21 : AC50 10000 nM (rising, partial curve)
* CCOC(=O)C1=C(CC)Nc2ccccc2N=C1NC(=O)c1cccc(S(=O)(=O)N2CCCC2)c1 : AC50 5012 nM (rising, partial curve)
* Cn1c(=O)c(-c2cc(F)cc(F)c2)nc2cnc(N3CCNCC3)nc21 : AC50 12589 nM (rising, partial curve)
* O=C(OCC1CO1)C1CCCCC1C(=O)OCC1CO1 (stereo not shown) : AC50 398.1 nM (rising, full curve)
* O=C(O)c1ccccc1CN1CCC[C@@H](C(=O)O)C1 : AC50 5012 nM (rising, single point)
* CC(=NCC1CCCO1)c1c(O)n(-c2ccc(Cl)cc2)c(=O)[nH]c1=O (stereo not shown) : AC50 12589 nM (rising, single point)
* CC[C@]1(O)C[C@H]2CN(CCc3c([nH]c4ccccc34)[C@](C(=O)OC)(c3cc4c(cc3OC)N(C)[C@@H]3[C@](O)(C(=O)OC)[C@H](OC(C)=O)[C@]5(CC)C=CCN6CC[C@]43[C@@H]65)C2)C1 : AC50 1259 nM (falling, full curve)
* COc1cccc(-c2nc(NCc3ccccc3OC)c3ccccc3n2)c1 : AC50 10000 nM (falling, partial curve)
* COc1ccc2cc3cc(C(=O)Nc4ccc5c(c4)OCCO5)oc3nc2c1 : AC50 1585 nM (falling, full curve)
* O=C(NC1CCCCC1)c1nc2c(nnn2Cc2ccccc2Cl)c(=O)[nH]1 : AC50 25118 nM (rising, single point)
* O=C(O)C(O)(c1ccc(-c2ccccc2)cc1)c1ccc(-c2ccccc2)cc1 : AC50 5012 nM (falling, single point)
* CCOP(=O)(c1ccc(N(C)C)cc1)C(O)c1c(Cl)cccc1Cl (stereo not shown) : AC50 5012 nM (rising, single point)
* O=C(NC1CCCc2ccccc21)C1CCC(CNc2c(N3CCOCC3)c(=O)c2=O)CC1 (stereo not shown) : AC50 10000 nM (rising, single point)
* CC1CCN(S(=O)(=O)c2ccc(Br)s2)CC1 : AC50 2512 nM (falling, full curve, poor fit)
* CN(C)Cc1cc(C(C)(C)c2cc(CN(C)C)c(O)c(CN(C)C)c2)cc(CN(C)C)c1O : AC50 10000 nM (falling, partial curve)
* O=[N+]([O-])c1cc(Cl)c(Cl)c(Cl)c1Cl : AC50 15848 nM (falling, partial curve)
* c1ccc(C2(Cn3ccc4ccccc43)OCCO2)cc1 : AC50 31622 nM (falling, single point)
* c1ccc(C2NCc3ccccc3-n3cccc32)cc1 (stereo not shown) : AC50 3981 nM (falling, partial curve)
* CCOc1ccc(NC(=O)C2CCN(C(=O)NCc3ccccc3)CC2)cc1 : AC50 5012 nM (rising, single point)

The last 2 entries again:

{"smiles": "c1ccc(C2NCc3ccccc3-n3cccc32)cc1", "stereo": "stereo not shown", "AC50 (nM)": "3981", "curve as filed": "falling, partial curve"}
{"smiles": "CCOc1ccc(NC(=O)C2CCN(C(=O)NCc3ccccc3)CC2)cc1", "AC50 (nM)": "5012", "curve as filed": "rising, single point"}